These results are taken from article PMC8568969.

Protein sequences, listed by entry. Tags and fused reporters are not part of them. Lines headed by an entry give the natural chain unless they say otherwise; changes in a name come on top. Chains listed by the source or under a name are the forms on record and can include a tag or linker.
UniProt Q9BUA3: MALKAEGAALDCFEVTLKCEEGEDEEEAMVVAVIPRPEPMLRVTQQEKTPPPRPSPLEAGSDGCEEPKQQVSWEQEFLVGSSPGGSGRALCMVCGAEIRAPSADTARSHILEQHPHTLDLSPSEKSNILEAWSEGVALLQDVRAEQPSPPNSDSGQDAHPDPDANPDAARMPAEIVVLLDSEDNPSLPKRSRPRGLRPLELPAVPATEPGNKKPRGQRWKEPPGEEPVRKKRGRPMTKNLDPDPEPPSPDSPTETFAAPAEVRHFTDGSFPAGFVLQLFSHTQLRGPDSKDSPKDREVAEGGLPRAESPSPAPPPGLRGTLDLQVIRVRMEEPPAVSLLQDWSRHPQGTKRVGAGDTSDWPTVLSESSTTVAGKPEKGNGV
GFP-SPINDOCΔ251–293aa (Q9BUA3, form named): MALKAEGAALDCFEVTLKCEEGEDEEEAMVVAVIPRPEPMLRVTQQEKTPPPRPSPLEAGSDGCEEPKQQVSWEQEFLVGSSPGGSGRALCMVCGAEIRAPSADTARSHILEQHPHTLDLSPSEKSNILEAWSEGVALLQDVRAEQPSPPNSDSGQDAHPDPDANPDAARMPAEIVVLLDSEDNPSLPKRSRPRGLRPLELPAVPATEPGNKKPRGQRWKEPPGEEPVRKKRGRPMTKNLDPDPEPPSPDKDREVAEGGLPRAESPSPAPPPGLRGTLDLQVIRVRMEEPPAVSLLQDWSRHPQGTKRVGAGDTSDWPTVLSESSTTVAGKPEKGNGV
UniProt P09874: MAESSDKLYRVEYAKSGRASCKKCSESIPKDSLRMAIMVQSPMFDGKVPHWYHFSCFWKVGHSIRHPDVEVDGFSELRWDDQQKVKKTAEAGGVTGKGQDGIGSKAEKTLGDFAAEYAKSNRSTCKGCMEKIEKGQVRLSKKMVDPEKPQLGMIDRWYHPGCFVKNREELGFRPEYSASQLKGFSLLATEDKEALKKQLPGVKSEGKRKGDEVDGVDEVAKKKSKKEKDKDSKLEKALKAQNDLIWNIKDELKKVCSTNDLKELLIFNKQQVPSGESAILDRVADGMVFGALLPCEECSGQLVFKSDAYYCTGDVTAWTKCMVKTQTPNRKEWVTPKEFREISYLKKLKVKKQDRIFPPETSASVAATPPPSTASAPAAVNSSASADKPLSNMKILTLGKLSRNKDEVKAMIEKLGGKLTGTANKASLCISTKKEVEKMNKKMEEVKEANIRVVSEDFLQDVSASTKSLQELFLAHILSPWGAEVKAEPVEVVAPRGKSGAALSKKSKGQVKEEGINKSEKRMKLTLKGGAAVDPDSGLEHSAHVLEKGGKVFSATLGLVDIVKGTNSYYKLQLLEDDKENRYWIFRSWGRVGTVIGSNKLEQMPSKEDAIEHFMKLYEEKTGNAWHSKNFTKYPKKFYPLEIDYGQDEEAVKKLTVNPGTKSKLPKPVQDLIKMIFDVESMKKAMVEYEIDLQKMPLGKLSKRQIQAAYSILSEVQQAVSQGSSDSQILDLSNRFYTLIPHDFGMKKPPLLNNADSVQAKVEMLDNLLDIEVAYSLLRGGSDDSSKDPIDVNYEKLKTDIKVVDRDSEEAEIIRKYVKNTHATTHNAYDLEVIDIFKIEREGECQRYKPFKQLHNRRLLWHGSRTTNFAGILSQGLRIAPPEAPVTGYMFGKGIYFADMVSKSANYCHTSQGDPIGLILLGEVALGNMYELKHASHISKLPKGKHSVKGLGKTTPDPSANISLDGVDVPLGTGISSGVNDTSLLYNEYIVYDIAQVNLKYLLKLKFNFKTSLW

These are yes or no findings as the source states them, for the method shown. Binding seen in cells or lysates may run through a third protein. A yes stands for co-enrichment or nearness to the bait. Other partners may have been found.

Experiment [1] concerns the target GFP-SPINDOC (UniProt Q9BUA3). In words: affinity purification with mass spectrometry; anti-GFP IP from cytoplasmic and nuclear fractions of HEK293T cells transfected with GFP-SPINDOC or GFP-SPINDOC del251–293aa (pEGFP-C1 as control), SDS-PAGE, in-gel trypsin digestion, LC-MS/MS.
For experiment [2], the target named is GFP-SPINDOCΔ251–293aa (UniProt Q9BUA3). The description is as above.

“PARP1 (endogenous) (from UniProt P09874 1-1014)”: the binding result in experiment [1] and in experiment [2] was “binds” each time.
